Results are given in words; binding and its absence hold for the method and conditions named. Binding seen in cells or lysates may run through a third protein. Some results given as binding are weak or reduced against the parent protein; the word gives no strength. Where a sequence is shown, tags or fusion partners need not be part of it.
Assays:
Assay in all cases: pull-down; GST pull-down of His-SUMO with GST fusions (input, unbound, bound); methods in File S1
[1] = target: T1, GST-Rad60 (full length Rad60) (S. pombe) (UniProt Q9USX3)
T1 sequence: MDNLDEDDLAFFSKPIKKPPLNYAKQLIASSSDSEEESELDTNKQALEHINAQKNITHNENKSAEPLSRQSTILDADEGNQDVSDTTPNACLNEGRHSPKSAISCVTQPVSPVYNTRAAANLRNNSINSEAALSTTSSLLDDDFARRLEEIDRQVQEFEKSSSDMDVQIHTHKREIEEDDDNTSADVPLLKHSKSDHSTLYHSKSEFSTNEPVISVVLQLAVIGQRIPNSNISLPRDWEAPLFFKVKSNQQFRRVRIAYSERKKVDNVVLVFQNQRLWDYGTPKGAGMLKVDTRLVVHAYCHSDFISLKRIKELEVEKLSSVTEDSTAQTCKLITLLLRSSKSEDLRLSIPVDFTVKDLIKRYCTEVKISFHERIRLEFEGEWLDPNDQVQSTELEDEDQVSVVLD

[2] = target: T2, GST-Rad60-SLD2 (S. pombe) (UniProt Q9USX3)
T2 sequence: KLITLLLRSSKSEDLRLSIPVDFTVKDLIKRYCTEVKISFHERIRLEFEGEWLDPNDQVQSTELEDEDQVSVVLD

[3] = target: T3, GST-Hus5 (S. pombe) (UniProt P40984)
T3 sequence: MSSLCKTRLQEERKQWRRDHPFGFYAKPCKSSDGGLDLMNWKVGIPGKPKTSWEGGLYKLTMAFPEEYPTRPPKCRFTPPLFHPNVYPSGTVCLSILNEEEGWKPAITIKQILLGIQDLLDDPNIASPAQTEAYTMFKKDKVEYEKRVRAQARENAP

B1: His-SUMO (protein, UniProt O13351 1-111)
chain: MSESPSANISDADKSAITPTTGDTSQQDVKPSTEHINLKVVGQDNNEVFFKIKKTTEFSKLMKIYCARQGKSMNSLRFLVDGERIRPDQTPAELDMEDGDQIEAVLEQLGG
Q: With B1 as the binder, how does the binding [1] read?
A: no binding

Q: And the binding [2]?
A: no binding

Q: And the binding [3]?
A: binds

Reference: article PMC2946365
